# Source: PubChem BioAssay AID651768 (National Center for Advancing Translational Sciences (NCATS), 2012)
# Protein sequences, listed by entry. Tags and fused reporters are not part of them.
# UniProt Q14191, whole entry, looked up: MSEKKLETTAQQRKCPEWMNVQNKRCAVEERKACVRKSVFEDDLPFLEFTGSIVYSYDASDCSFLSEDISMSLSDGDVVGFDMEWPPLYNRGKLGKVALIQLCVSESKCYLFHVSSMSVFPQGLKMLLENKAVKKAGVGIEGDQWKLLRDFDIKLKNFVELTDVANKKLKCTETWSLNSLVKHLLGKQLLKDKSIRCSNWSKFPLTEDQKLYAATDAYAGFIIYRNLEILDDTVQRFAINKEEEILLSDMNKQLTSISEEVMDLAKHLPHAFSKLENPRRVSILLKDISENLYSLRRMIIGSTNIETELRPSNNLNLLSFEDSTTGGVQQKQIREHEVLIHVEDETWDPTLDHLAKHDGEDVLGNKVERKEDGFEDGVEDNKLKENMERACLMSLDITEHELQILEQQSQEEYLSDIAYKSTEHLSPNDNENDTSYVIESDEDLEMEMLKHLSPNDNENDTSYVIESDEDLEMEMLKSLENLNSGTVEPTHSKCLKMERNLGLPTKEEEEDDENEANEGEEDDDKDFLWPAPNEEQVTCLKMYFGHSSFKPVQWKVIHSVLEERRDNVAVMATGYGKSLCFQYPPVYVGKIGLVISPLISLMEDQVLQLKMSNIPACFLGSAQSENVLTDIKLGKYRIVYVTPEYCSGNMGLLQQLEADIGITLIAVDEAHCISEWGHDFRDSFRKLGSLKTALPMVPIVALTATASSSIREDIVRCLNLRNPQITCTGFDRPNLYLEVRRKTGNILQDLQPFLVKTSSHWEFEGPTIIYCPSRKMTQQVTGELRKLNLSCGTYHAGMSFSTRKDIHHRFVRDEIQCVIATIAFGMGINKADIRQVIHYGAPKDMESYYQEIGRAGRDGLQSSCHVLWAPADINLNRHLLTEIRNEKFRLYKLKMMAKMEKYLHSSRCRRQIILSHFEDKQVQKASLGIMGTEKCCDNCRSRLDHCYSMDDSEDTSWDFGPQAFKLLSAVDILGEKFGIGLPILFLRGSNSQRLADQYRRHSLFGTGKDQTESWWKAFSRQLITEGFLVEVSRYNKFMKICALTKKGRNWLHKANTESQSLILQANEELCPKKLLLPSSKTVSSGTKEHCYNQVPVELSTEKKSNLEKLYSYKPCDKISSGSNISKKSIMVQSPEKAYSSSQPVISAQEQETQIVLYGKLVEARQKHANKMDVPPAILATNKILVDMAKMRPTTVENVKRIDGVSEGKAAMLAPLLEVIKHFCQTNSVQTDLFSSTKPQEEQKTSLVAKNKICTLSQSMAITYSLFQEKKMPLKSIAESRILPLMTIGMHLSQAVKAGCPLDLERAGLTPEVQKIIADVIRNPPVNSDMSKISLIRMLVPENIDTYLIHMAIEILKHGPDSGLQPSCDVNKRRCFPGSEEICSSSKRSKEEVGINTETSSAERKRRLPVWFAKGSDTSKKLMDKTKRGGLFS
# Out of some 360,000 compounds screened, about 1,700 (0.47%) were called active. Inconclusive results, whose numbers are uncertain, are shown with a selection of clear calls. Calls follow the shape of the dose curve; as a rule, active = well fitted inhibition curve with a large enough effect; inconclusive = small, poorly fitted or top-dose-only effect; inactive = no such curve, though single readings can be large or run the other way. A potency beside an inconclusive call is a rough fit, not a confirmed value.
# Target: Bifunctional 3'-5' exonuclease/ATP-dependent helicase WRN (Homo sapiens) (UniProt Q14191)
# Experiment: qHTS for Inhibitors of WRN Helicase; also: nearly all actives have a fitted effect of over 55% in size
# Settings: WRN helicase unwinding, fluorescent forked duplex, kinetic; activity change, negative = inhibition: at 114 µM (top of the series) unless noted
# Method in brief: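 Kinetic fluorescence helicase assay: unwinding of a quenched forked DNA duplex (100 nM final) with 2 mM ATP final raises red fluorescence (525/598 nm). Compounds sat 15 min at room temperature with 20 nM WRN beforehand.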
# % is scaled to controls: 0 for no effect and ±100 for the full control effect; potency is read from the fitted curve at half-maximal effect.
SMILES,Potency,"activity change, negative = inhibition"
CCOc1ccc(Nc2nc3ccccc3n2C)cc1,"inconclusive: 17.8 µM [inhibitor, single point]",–
CN(C)C(=O)CSc1nc2cc(S(=O)(=O)N3CCOCC3)ccc2o1,–,inactive: -24.5%
CC(C)(C)[C@H]1COC(=O)[C@H](NC(=O)OCC2c3ccccc3-c3ccccc32)C/C=C\C[C@@H](CC(=O)N[C@@H](CO)Cc2ccccc2)C(=O)N1,–,inactive: -8.35%
COc1cc(C(=O)Nc2scc(-c3ccc(C)cc3)c2C(=O)O)cc(OC)c1OC,–,inactive: -10.8%
N#Cc1ccsc1NC(=O)COC(=O)C1=NNC(=O)CC1,"inconclusive: 79.4 µM [inhibitor, partial curve]",–
N#C/C(=C\C=C\c1ccccc1)C(=O)N1CCCC1,"inconclusive: 89.1 µM [inhibitor, single point]",–
CN(C)c1ccc(/C=C/c2ccncc2)cc1,"inconclusive: 25.1 µM [inhibitor, full curve, poor fit]",–
CN=c1scc(C)n1/N=C/c1ccc(O)cc1O,"inconclusive: 79.4 µM [inhibitor, single point]",–
Cc1cc(C(=O)COC(=O)c2ccc(F)cc2F)c(C)n1C1CC1,"inconclusive: 22.4 µM [inhibitor, single point]",–
CC(C)CCNC(=O)c1cnn2c(C(F)(F)F)cc(-c3ccco3)nc12,"inconclusive: 70.8 µM [inhibitor, partial curve]",–
COc1ccccc1N1CCN(C(C)C(=O)N2CC(C)OC(C)C2)CC1 (stereo unspecified),"inconclusive: 31.6 µM [inhibitor, full curve]",–
CCOC(=O)c1sc2ncn(C(C)C(=O)OCC)c(=O)c2c1C (stereo unspecified),–,inactive: 0.279%
CCOC(=O)Nc1cc2c(c(N)n1)N=C(c1ccccc1)CN2,active: 56.2 µM,–
Cc1cc(SCC(=O)c2ccc(O)c(O)c2)nc2ccccc12,"inconclusive: 44.7 µM [inhibitor, full curve]",–
C=CCN(c1ccccc1)S(=O)(=O)c1cccc(C(=O)NCc2ccco2)c1,"inconclusive: 44.7 µM [inhibitor, full curve, poor fit]",–
CCOC(=O)c1c(NC(=O)CSc2ncnc3ccccc23)sc(C(C)=O)c1C,"inconclusive: 25.1 µM [inhibitor, single point]",–
Cc1ccc(CNC(=O)c2cccc3c2C(=O)c2ccc(N4CCCCC4)cc2S3(=O)=O)cc1,active: 50.1 µM,–
CC(C)(C)c1ccc(C(=O)N/C(=C\c2cccc([N+](=O)[O-])c2)C(=O)Nc2cccc(C(=O)O)c2)cc1,"inconclusive: 28.2 µM [inhibitor, single point]",–
COCCn1c(N)c(C(=O)OCc2ccccc2)c2nc3ccccc3nc21,–,inactive: -14.2% [at 57.1 µM]
CCOC(=O)CSc1nnc(NCC(=O)OC(C)C)c(=O)[nH]1,"inconclusive: 100 µM [inhibitor, partial curve, poor fit]",–
COc1cc(N=Nc2ccc(C(=O)N(C)C)cc2)c(C)cc1N,–,inconclusive: -37.9% [inhibitor]
O=C1Nc2ccc(S(=O)(=O)NCc3ccccn3)c3cccc1c23,"inconclusive: 7.08 µM [inhibitor, full curve, poor fit]",–

# Already shown: entries from further up.
SMILES,Potency,"activity change, negative = inhibition"
Cc1ccc(CNC(=O)c2cccc3c2C(=O)c2ccc(N4CCCCC4)cc2S3(=O)=O)cc1,active: 50.1 µM,–
CC(C)(C)c1ccc(C(=O)N/C(=C\c2cccc([N+](=O)[O-])c2)C(=O)Nc2cccc(C(=O)O)c2)cc1,"inconclusive: 28.2 µM [inhibitor, single point]",–

# (continued)

SMILES,Potency,"activity change, negative = inhibition"
CC1=CC(=C(C#N)C#N)C=C(C)N1CCN1CCNCC1,"inconclusive: 56.2 µM [inhibitor, partial curve]",–
CCN1CCN(CC(O)COCC2COc3ccccc3O2)CC1 (stereo unspecified),"inconclusive: 89.1 µM [inhibitor, single point]",–
Nc1ncnc2oc(-c3ccco3)c(-c3ccco3)c12,"inconclusive: 11.9 µM [inhibitor, partial curve]",–
CN(C)S(=O)(=O)N1CCC(Oc2cccc(C(=O)N3CCCCCC3)c2)CC1,–,inactive: -18.5%
O=C(O)COc1ccccc1/C=C1\SC(=S)N(/N=C/c2ccccc2O)C1=O,"inconclusive: 50.1 µM [inhibitor, partial curve]",–
Cc1cc(=O)n2[nH]c(-c3ccsc3-n3c(C)ccc3C)cc2n1,"inconclusive: 50.1 µM [inhibitor, partial curve]",–
C=C1CCC2C(C)(C)[C@@H](O)CC[C@@]2(C)[C@@H]1COc1ccc2ccc(=O)oc2c1 (stereo partly specified),–,inactive: -5.28%
O=c1c2c3nc4ccccc4nc3n(/N=C/c3ccco3)c2ncn1CCC1=CCCCC1,"inconclusive: 10 µM [inhibitor, partial curve]",–
O=C(CSc1nc2ccsc2c(=O)n1CC1CCC(C(=O)O)CC1)c1ccc(Cl)cc1 (stereo unspecified),"inconclusive: 50.1 µM [inhibitor, partial curve]",–
CCOc1ccc2nc(NC(=O)CSc3nc(-c4ccccc4)c(C#N)c(=O)[nH]3)sc2c1,"inconclusive: 39.8 µM [inhibitor, single point]",–
COc1cc(/C=C2\SC(=Nc3ccccc3)NC2=O)cc(Cl)c1O,"inconclusive: 20 µM [inhibitor, full curve]",–
Cc1nnc2ccc(-c3ccc(NS(=O)(=O)c4ccccc4)cc3)nn12,–,inactive: -0.296%
O=C1N=c2ccc([N+](=O)[O-])cc2=C1c1sc(=O)[nH]c1O,"inconclusive: 3.16 µM [inhibitor, full curve, poor fit]",–
COC(=O)C1=C(O)/C(=C\c2ccc(CNC(=O)C(=O)Nc3ccc(C)cc3)o2)N=C1C,–,inconclusive: -39.4% [inhibitor] [at 57.1 µM]
CC1SC(=NC(=O)c2ccncc2)NC1=O (stereo unspecified),"inconclusive: 100 µM [inhibitor, single point]",–
Cc1ccc2nc(-c3ccncc3)cc(C(=O)Nc3ccc(OC(F)F)cc3)c2c1,active: 44.7 µM,–
O=C(O)Cn1c(CCS(=O)(=O)c2ccc(Br)cc2)nc2ccccc21,"inconclusive: 39.8 µM [inhibitor, single point]",–
CC(/C=N/n1c(-c2ccncc2)n[nH]c1=S)=C\c1ccco1,"inconclusive: 50.1 µM [inhibitor, partial curve]",–
O=C1C(Br)=C(c2ccccc2)C(c2ccccc2)=C1c1ccccc1,"inconclusive: 20 µM [inhibitor, full curve, poor fit]",–
Cc1ccc(C2=NOC(=O)/C2=C\c2ccc(C)o2)cc1,"inconclusive: 56.2 µM [inhibitor, partial curve]",–
O=C(NC(Cc1ccccc1)C(=O)O)/C(=C/c1ccccc1)NC(=O)c1cccc(Br)c1 (stereo unspecified),"inconclusive: 25.1 µM [inhibitor, single point]",–
O=C(Nc1cccc(-c2nn[nH]n2)c1)c1csc2c1CCCC2,"inconclusive: 17.8 µM [inhibitor, single point]",–

# By substructure: the compounds so far with fluorine
SMILES,Potency,"activity change, negative = inhibition"
Cc1cc(C(=O)COC(=O)c2ccc(F)cc2F)c(C)n1C1CC1,"inconclusive: 22.4 µM [inhibitor, single point]",–
CC(C)CCNC(=O)c1cnn2c(C(F)(F)F)cc(-c3ccco3)nc12,"inconclusive: 70.8 µM [inhibitor, partial curve]",–
Cc1ccc2nc(-c3ccncc3)cc(C(=O)Nc3ccc(OC(F)F)cc3)c2c1,active: 44.7 µM,–

# Continuation:

SMILES,Potency,"activity change, negative = inhibition"
CCOC(=O)C1=C(C)N=c2s/c(=C/c3ccc(OCC(=O)O)cc3)c(=O)n2C1c1cc(OC)c(OC)c(OC)c1 (stereo unspecified),"inconclusive: 63.1 µM [inhibitor, single point]",–
COc1ccc(NC(=S)N(CCN(C)C)C(C)c2ccco2)cc1Cl (stereo unspecified),–,inactive: 2.08%
O=C1C2CC=C(Cl)CC2C(=O)N1CCCCCCN1C(=O)C2CC=C(Cl)CC2C1=O (stereo unspecified),"inconclusive: 18.9 µM [inhibitor, partial curve]",–
CCN(CC)c1ccc(NC(=O)CN(C)Cc2cccs2)cc1,"inconclusive: 89.1 µM [inhibitor, single point]",–
COc1cccc2c(SCC(=O)N/N=C/c3ccc(O)c(O)c3)cc(C)nc12,active: 20 µM,–
O=C(/C=C/c1ccco1)NC(=S)Nc1ccccc1N1CCOCC1,–,inactive: -10.5%
COc1cccc(C(O)c2nc(-c3cccc(F)c3)cs2)c1 (stereo unspecified),–,inactive: -8.13%
Oc1ccc(/C=N/Nc2ccnc3cc(Cl)ccc23)c(O)c1,"inconclusive: 56.2 µM [inhibitor, partial curve]",–
S=c1[nH]nc(Cc2cccs2)n1-c1ccccc1Cl,"inconclusive: 28.2 µM [inhibitor, single point]",–
CN(C)CC1CC/C(=C\c2ccc(O)cc2)C1=O (stereo unspecified),active: 11.2 µM,–
O=C(O)c1ccc(/C=N/NC(=O)c2ccc(CN3c4cccc5cccc(c45)S3(=O)=O)cc2)cc1,"inconclusive: 50.1 µM [inhibitor, partial curve]",–
OCc1cn(-c2ccccc2)nc1-c1ccc(-c2nn(-c3ccccc3)cc2CO)cc1,–,inconclusive: -37.5% [inhibitor] [at 57.1 µM]
Cc1[nH]n(-c2ccccc2)c(=O)c1C(C[N+](=O)[O-])c1ccc(Br)cc1 (stereo unspecified),"inconclusive: 56.2 µM [inhibitor, partial curve]",–
O=C(COC(=O)c1cccc(S(=O)(=O)N2CCN(c3ccccc3)CC2)c1)NCC1CCCO1 (stereo unspecified),"inconclusive: 89.1 µM [inhibitor, single point]",–
CCOc1ccc(NS(=O)(=O)c2ccc(NC(=O)c3ccccc3C(=O)O)cc2)cc1,"inconclusive: 7.08 µM [inhibitor, full curve, poor fit]",–
CCc1cc(C(=O)Nc2ccc(S(=O)(=O)NC3=NCCCCC3)cc2)sc1C,"inconclusive: 63.1 µM [inhibitor, partial curve, poor fit]",–
CC(C)Oc1ccc(N2CC(C(=O)NC3=NCCS3)CC2=O)cc1 (stereo unspecified),–,inactive: 13.4%
O=C1NC(=S)S/C1=C/c1ccc(N2CCOCC2)o1,active: 25.1 µM,–
COc1cccc(/C=C2/CN(C)CC3=C2OC(N)=C(C#N)C3c2cccc(OC)c2)c1 (stereo unspecified),active: 79.4 µM,–
CCS(=O)(=O)C1=NSC2=NC(=O)/C(=C\c3ccc(OS(=O)(=O)c4ccccc4)cc3)C(=N)N21,"inconclusive: 17.8 µM [inhibitor, full curve]",–
Cc1cc(=O)[nH]c(SCc2nc3ccc([N+](=O)[O-])cc3[nH]2)n1,"inconclusive: 17.8 µM [inhibitor, single point]",–
c1cc2c(cc1CN1CCOCC1)OCO2,–,inactive: -11.9%
